We go through one molecule from publication doi:10.1101/2020.11.17.386763.

These are yes or no findings as the source states them, for the method shown. Some binding calls cover weakened binding; strength is not graded here. Where a sequence is shown, tags or fusion partners need not be part of it.

The experiment concerns the target T1, N-terminally HA-tagged RAE-1γ (mouse) (UniProt O08604).
T1 sequence: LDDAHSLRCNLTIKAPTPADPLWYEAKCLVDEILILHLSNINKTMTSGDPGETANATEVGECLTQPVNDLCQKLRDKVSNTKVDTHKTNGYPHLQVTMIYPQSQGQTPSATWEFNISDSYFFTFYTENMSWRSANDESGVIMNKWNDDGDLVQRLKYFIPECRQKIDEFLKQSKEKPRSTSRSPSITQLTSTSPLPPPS
Nature of the experiment: flow cytometry on cells.

B1: Recombinant Mouse NKG2D-IgFc Chimera Protein, CF (Fc fusion, UniProt O54709 90-232)
chain: FKETFQPVLCNKEVPVSSREGYCGPCPNNWICHRNNCYQFFNEEKTWNQSQASCLSQNSSLLKIYSKEEQDFLKLVKSYHWMGLVQIPANGSWQWEDGSSLSYNQLTLVEIPKGSCAVYGSSFKAYTEDCANLNTYICMKRAV
In the case of B1, the binding result is recorded as “binds”.
